In patent EP2226633A1:
Results are given in words; binding and its absence hold for the method and conditions named. In cells and extracts the contact can be indirect. Some entries that bind do so weakly or less than the wild type. Where a sequence is shown, tags or fusion partners need not be part of it.

Tests used:
[1] = molecular target: T1, human LIFRα from HEK 293 cell extracts (human) (UniProt P42702); assay: GST pull-down, HEK cell extracts as prey, anti-LIFR Western blot
T1 sequence (looked up): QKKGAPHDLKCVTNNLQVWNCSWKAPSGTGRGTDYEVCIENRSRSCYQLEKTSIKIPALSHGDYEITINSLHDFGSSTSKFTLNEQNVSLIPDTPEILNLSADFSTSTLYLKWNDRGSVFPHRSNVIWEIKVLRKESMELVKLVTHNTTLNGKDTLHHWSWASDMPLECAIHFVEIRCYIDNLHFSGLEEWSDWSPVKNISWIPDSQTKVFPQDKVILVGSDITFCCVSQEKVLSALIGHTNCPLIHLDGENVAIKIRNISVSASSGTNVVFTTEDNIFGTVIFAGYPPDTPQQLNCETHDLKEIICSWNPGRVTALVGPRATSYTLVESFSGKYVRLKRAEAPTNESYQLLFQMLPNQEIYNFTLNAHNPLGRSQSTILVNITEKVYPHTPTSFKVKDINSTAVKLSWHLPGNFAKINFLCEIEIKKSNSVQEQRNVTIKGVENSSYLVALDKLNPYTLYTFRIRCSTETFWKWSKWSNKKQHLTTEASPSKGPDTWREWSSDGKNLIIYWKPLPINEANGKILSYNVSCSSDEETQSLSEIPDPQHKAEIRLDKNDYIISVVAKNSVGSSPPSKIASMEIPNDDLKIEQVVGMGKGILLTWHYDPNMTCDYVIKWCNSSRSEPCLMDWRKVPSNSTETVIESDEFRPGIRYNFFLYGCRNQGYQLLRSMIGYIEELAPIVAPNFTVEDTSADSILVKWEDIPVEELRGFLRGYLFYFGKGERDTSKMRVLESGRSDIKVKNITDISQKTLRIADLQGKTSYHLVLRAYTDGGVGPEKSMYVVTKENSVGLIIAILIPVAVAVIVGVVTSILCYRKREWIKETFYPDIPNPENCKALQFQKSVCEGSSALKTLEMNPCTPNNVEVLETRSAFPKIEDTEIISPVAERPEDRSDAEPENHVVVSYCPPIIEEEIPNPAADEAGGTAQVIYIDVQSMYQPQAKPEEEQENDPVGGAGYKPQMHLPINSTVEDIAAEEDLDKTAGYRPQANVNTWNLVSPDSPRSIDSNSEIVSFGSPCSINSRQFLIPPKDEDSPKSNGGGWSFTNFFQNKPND

[2] = molecular target: T2, rat LIFRα of rat primary cortical neurons (rat) (UniProt O70535); assay: GST pull-down, rat primary cortical neuron extracts as prey, anti-LIFR Western blot
T2 sequence (looked up): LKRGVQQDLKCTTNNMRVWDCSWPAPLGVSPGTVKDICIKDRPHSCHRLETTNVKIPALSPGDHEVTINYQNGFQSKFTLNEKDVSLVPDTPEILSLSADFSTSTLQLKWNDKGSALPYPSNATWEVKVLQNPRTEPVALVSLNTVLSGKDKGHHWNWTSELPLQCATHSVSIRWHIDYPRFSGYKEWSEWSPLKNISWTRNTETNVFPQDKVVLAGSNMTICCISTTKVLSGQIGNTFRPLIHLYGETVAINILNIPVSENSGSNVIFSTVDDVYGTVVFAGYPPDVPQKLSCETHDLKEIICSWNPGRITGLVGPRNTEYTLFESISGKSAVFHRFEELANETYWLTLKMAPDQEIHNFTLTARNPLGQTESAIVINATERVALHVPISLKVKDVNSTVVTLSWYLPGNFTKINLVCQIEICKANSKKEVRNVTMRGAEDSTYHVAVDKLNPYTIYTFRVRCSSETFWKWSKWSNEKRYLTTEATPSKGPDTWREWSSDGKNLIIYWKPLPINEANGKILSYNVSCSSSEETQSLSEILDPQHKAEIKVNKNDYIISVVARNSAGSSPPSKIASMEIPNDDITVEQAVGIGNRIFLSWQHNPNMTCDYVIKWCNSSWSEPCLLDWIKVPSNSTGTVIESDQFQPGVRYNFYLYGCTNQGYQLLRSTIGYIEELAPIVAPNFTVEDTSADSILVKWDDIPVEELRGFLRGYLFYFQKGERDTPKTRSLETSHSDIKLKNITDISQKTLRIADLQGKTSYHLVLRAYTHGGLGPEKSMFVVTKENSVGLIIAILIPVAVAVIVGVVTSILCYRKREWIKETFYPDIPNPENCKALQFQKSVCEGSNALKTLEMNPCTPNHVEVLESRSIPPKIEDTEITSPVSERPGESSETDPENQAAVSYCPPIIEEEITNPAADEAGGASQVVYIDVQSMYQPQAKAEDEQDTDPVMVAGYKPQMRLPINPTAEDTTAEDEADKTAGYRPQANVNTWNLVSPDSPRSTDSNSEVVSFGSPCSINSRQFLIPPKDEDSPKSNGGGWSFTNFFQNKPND

[3] = molecular target: T3, V5-His-tagged murine soluble LIFR, secreted by HEK 293 cells (mouse) (UniProt P42703); assay: GST pull-down, HEK supernatant with msLIFR as prey, anti-V5 Western blot
T3 sequence (looked up): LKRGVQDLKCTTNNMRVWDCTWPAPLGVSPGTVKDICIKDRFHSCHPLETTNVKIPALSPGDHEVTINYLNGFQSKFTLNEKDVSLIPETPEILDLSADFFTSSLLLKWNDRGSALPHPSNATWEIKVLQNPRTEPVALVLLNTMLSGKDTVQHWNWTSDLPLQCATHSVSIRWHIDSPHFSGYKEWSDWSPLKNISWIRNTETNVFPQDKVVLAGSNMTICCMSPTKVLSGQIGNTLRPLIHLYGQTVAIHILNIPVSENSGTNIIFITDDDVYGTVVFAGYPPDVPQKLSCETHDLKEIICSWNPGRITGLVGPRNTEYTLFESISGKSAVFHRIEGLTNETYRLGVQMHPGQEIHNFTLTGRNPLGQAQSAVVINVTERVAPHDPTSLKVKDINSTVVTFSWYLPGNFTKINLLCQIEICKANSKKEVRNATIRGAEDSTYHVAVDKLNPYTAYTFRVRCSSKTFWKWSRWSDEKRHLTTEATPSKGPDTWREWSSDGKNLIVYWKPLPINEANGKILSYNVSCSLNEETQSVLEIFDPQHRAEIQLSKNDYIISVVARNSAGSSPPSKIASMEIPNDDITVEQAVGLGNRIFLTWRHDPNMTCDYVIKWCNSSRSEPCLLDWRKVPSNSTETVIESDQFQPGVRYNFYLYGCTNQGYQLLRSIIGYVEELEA

Measured: binding

B1: GST fusion protein of the mature murine EPO splice variant mS (complete loss of exon 4), expressed in E. coli (ligand, not shown: a dimerising Fc or GST)
chain: APPRLICDSRVLERYILEAKEAENVTMGCAEGPRLSENITVPDTKVNFYAWKRMEKELMSPPDTTPPAPLRTLTVDTFCKLFRVYANFLRGKLKLYTGEVCRRGDR
binds: all assays above
